Publication PMC5923212

Protein sequences, listed by entry. Tags and fused reporters are not part of them. Lines headed by an entry give the natural chain unless they say otherwise; changes in a name come on top.
UniProt Q5SQI0: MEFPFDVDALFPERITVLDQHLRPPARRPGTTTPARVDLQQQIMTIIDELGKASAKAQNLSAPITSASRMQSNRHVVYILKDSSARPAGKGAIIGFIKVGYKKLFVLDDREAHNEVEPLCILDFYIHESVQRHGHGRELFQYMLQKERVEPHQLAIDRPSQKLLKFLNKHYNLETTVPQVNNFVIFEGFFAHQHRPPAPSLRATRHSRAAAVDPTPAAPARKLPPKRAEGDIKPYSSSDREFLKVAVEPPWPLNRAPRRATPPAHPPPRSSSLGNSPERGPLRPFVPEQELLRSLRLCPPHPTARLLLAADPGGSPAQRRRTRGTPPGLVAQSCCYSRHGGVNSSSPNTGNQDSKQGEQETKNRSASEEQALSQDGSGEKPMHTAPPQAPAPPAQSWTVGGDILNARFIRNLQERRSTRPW

Legend:
[1] = molecular target: T1, Flag-TAK1 kinase-dead (K63W) (UniProt O43318); assay: co-IP; COS-7 cells transfected; immunoprecipitation with Flag antibody; lysis buffer 20 mM HEPES pH 7.4, 150 mM NaCl, 5 mM NaF, 1% NP-40; 6 h at 4 C; also after SB431542 (30 μM) or (5Z)-7-Oxozeaenol (20 μM) for 30 min
T1 sequence: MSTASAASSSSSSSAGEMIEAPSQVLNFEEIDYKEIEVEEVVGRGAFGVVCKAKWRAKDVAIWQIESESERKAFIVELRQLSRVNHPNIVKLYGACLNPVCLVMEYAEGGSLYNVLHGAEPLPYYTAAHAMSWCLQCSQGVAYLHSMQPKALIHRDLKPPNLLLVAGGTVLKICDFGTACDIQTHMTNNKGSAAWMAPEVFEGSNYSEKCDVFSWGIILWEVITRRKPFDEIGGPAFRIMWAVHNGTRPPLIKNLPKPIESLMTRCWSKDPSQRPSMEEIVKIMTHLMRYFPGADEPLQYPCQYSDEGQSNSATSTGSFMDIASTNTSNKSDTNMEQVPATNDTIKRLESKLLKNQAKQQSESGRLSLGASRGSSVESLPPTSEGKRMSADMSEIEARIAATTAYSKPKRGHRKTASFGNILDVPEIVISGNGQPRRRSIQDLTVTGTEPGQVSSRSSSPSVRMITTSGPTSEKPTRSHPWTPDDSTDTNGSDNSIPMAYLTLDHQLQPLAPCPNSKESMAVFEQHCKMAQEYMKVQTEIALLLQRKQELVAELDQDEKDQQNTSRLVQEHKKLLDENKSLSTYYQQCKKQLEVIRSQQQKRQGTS

[2] = molecular target: T2, Flag-TAK1 WT (UniProt O43318); assay: as above
T2 sequence: T1 sequence with W63K

[3] = molecular target: T3, purified biotin-labeled TAK1 (UniProt O43318); assay: pull-down; purified biotin-labeled TAK1 immobilized on streptavidin agarose, co-incubated with purified αTAT1; negative control with non-biotinylated TAK1; both purified
T3 sequence (chain, biotin label (site not stated)): T1 sequence with W63K

[4] = molecular target: HA-αTAT1 WT; assay: co-IP; COS-7 cells transfected; immunoprecipitation with HA antibody; lysis buffer 20 mM HEPES pH 7.4, 150 mM NaCl, 5 mM NaF, 1% NP-40; 6 h at 4 C
[5] = molecular target: HA-αTAT1-Δ196 (UniProt Q5SQI0); assay: as above
[6] = molecular target: HA-αTAT1-Δ301; assay: as above

For HA-αTAT1 WT (enzyme), the binding [1] was “binds” and the binding [2] was “binds”.

For purified αTAT1 (enzyme), the binding [3] was “binds”.

B1: Flag-TAK1 WT (enzyme, UniProt O43318 1-606)
chain: T1 sequence with W63K
B1 was tested, and the binding [4] was “binds”, the binding [5] was “no binding” and the binding [6] was “binds”.

Positions count from the first letter of the chain named. No constants are given. Whether binding was seen depends on the method and setting. For part of these data: Binding calls can cover weak binding; strength is not graded here. For part of these data: In cells and extracts the contact can be indirect. For part of these data: Where a sequence is shown, tags or fusion partners need not be part of it.
